Experimental data: the supplement of paper PMC11150407
Screen size: about 3,000 compounds; about 45 (2%) showed an effect of 50% or more. Some of the results follow.

The molecules below were run on MOLM1 and UCSD/AML1 (averaged) (assay: cell viability relative to DMSO control (POC); higher = less growth inhibition). Conditions: 1 µM; 72 h.
Method: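 Primary viability screen in the 3q26 EVI1-high AML cell lines MOLM1 and UCSD/AML1, compounds at 1 uM for 72 h. ATP CellTiter-Glo read-out given as percent viable over DMSO control (POC), averaged over duplicates. This mapping covers the TimTec NDL-3000 natural derivative library, whose compounds are identified by TimTec catalogue codes (ST...).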

Structure (SMILES)	cell viability
COc1cc(OC)cc(C(=O)Nc2ccc3nc(C)c(C)nc3c2)c1	95.5%
CCOC(=O)CNC(=O)c1cccc(OC)c1	102%
COc1ccc(CCNC(=O)CCCO)cc1OC	100%
COc1ccc(-c2cc(=O)c3cc(O)ccc3o2)cc1	71.1%
O=C(Oc1ccc2c(=O)c(Oc3ccccc3Br)coc2c1)c1ccco1	96.4%
COc1cc(/C=C2/NC(=O)N(CC(=O)Nc3ccc(C)cc3)C2=O)cc2c1OCO2	98.3%
COC(=O)CNC(=O)c1cccc(OC)c1	103%
Cc1c(Cl)ccc2c1NC(C(=O)O)C1CC=CC21 (configuration not stated)	107%
O=C(CSc1nc2ccccc2c(=O)[nH]1)N1CCN(c2ccc(F)cc2)CC1	98.1%
COc1cccc(Nc2ncnc3nc[nH]c23)c1	102%
COc1cccc(N2C(=O)C3Cc4c([nH]c5ccccc45)C(c4ccccc4)N3C2=S)c1 (configuration not stated)	96.5%
Cc1ccc(-n2c(SCC(=O)N3CCCc4ccccc43)nc3c(=O)[nH]cnc32)cc1	105%
O=c1cc(-c2ccc(Cl)cc2)oc2c(Br)cc(Br)cc12	108%
CC(Nc1nc(N2CCNCC2)nc2ccccc12)c1ccccc1 (configuration not stated)	89.5%
COc1cc(C(=O)NC2CCCCC2NC(=O)c2cc(OC)c(OC)c(OC)c2)cc(OC)c1OC (configuration not stated)	111%
COCCOC(=O)c1c(C)n(CCNc2ccc([N+](=O)[O-])cc2Cl)c2c1cc(O)c1ccccc12	98.8%
Cc1ccc(N2COc3ccc4c(C)cc(=O)oc4c3C2)cc1	91.1%
Cc1ccc(C(=O)NCCc2c(C)[nH]c3c(C)cccc23)cc1[N+](=O)[O-]	89.3%
COc1cc2c(c(NC(=O)/C=C/c3ccccc3Cl)c1OC)C(=O)OC2	99.9%
COc1ccc(NC(=O)CSc2nc3c(=O)[nH]cnc3n2-c2ccc(C)cc2)cc1OC	92.8%
COc1ccc(/C=N/NC(=O)c2cc(O)c(O)c(O)c2)cc1Cn1cnc([N+](=O)[O-])n1	95.5%
CCN(CC)C(=O)c1cc(=O)n(CC(=O)Nc2ccc(F)cc2F)c2ccccc12	107%
O=c1[nH]c(=O)n(C2CC(O)C(CO)O2)cc1C(F)(F)F (configuration not stated)	29.6%
COC(=O)CN1Cc2[nH]c3ccccc3c2CC1C(=O)OC (configuration not stated)	105%
COc1ccc2[nH]c(=O)c(Cc3ccccc3)c(O)c2c1	102%
Cc1[nH]c2ccccc2c1CCNC(=O)/C(=C/c1ccc(OC(C)C)cc1)NC(=O)c1ccccc1	104%

Single entries from above:
COc1ccc(NC(=O)CSc2nc3c(=O)[nH]cnc3n2-c2ccc(C)cc2)cc1OC – cell viability: 92.8%
CC(Nc1nc(N2CCNCC2)nc2ccccc12)c1ccccc1 (configuration not stated) – cell viability: 89.5%
O=C(Oc1ccc2c(=O)c(Oc3ccccc3Br)coc2c1)c1ccco1 – cell viability: 96.4%
COc1cc(C(=O)NC2CCCCC2NC(=O)c2cc(OC)c(OC)c(OC)c2)cc(OC)c1OC (configuration not stated) – cell viability: 111%
O=c1cc(-c2ccc(Cl)cc2)oc2c(Br)cc(Br)cc12 – cell viability: 108%

Later entries.

Structure (SMILES)	cell viability
Cc1cc2c(c(O)c1-c1c(C)cc3c(c1O)/C(=C/Nc1ccc(Cc4ccc(N)cc4)cc1)C(=O)C(O)=C3C(C)C)/C(=C/Nc1ccc(Cc3ccc(N)cc3)cc1)C(=O)C(O)=C2C(C)C	100%
Cc1ccc2nc(CC(=O)O)[nH]c2c1	98.4%
Cc1[nH]c2c(Cl)c(Cl)ccc2c1CCNC(=O)Cn1nc(-c2ccc(Cl)cc2)c2ccccc2c1=O	105%
COC(=O)CNC(=O)c1ccc(OC)c(OC)c1	103%
CC(C)(C)c1ccc(OCCSc2nc3ncnc(N)c3[nH]2)cc1	97.9%
CCCOc1ccc(/C=C2\Oc3ccc(C(=O)OC)cc3C2=O)cc1OCC	106%
COc1ccc2c(c1)c(CC(=O)Nc1c(C)n(C)n(-c3ccccc3)c1=O)c(C)n2C(=O)c1ccc(Cl)cc1	97.1%
COc1cc(/C=C(/C#N)c2nc3ccccc3s2)cc(OC)c1O	92.5%
CCOC(=O)CC[C@@H](C)[C@H]1CC[C@H]2[C@@H]3[C@H](O)C[C@@H]4C[C@H](O)CC[C@]4(C)[C@H]3C[C@H](O)[C@]12C	93.1%
Cc1[nH]c2ccccc2c1CCNC(=O)c1cc(F)c(F)cc1Cl	105%
O=c1[nH]c(=O)n(CCOc2ccc(Cl)cc2)cc1Br	93.2%
Cc1ccc2c(=O)c(O)c(-c3ccc(OCc4ccccc4)cc3)oc2c1	112%
Cc1ccc(C)c(NC(=O)Cn2c(=O)cc(C(=O)NCc3ccccc3)c3ccccc32)c1	93.9%
N#CC1=C(N)Oc2c(oc(CO)cc2=O)C1c1ccc2ccccc2c1 (configuration not stated)	99.5%
Cc1[nH]c2ccccc2c1CCNC(=O)/C(=C/c1ccco1)NC(=O)c1ccc(C(C)(C)C)cc1	89.9%
Cc1[nH]c2ccccc2c1CCNC(=O)COc1ccc(F)cc1F	102%
Cc1cccc(C(=O)/C=C2/c3ccc4ccccc4c3CC(C)(C)N2C)c1	103%
O=C(O)CC[C@H](NC(=O)c1ccccc1)C(=O)O	114%
Nc1c(C(=O)N2CCc3ccccc3C2)sc2nc(-c3cccnc3)cc(C(F)(F)F)c12	108%
COc1cc(-c2nc3c(n2O)C(=O)CC(C)(C)C3)cc(OC)c1OC	94.8%
COC(=O)C1=C(N)Oc2c(oc(CO)cc2=O)C1c1cccnc1 (configuration not stated)	111%
Cc1ccc(-n2c(SCC(=O)Nc3ccc4c(c3)OCO4)nc3c(=O)[nH]cnc32)cc1	92.4%
O=C(Cn1c(=O)cc(C(=O)N2CCOCC2)c2ccccc21)Nc1cccc(Br)c1	92.7%
O=C(O)CNC(=O)c1ccc(F)cc1	103%
COc1c2c(c(COc3ccc4c(c3)OCO4)c(OC)c1OC)C(=O)OC2	103%
O=C(O)/C=C/c1ccc(F)c(Br)c1	105%

Structure (SMILES)	cell viability
COc1ccc(C(=S)N2CCCCC2)cc1OC(=O)c1cc(OC)c(OC)c(OC)c1	107%
CCOC(=O)c1ccc2nc3c(=O)[nH]c(=O)nc-3n(CCc3ccc(OC)c(OC)c3)c2c1	99.7%
COc1cc(C)cc2oc(=O)c(CC(=O)NCc3ccc(F)cc3)c(C)c12	103%
COc1cc(OC)cc(C(=O)N2CCCc3cccc(OC)c32)c1	95.2%
CC(C)CCOC(=O)COc1ccc2c(=O)c(Oc3ccc(C(C)(C)C)cc3)coc2c1	85.3%
COC(=O)c1ccc2c(c1)C(=O)/C(=C\c1ccc(OC)cc1)O2	101%
COc1ccc2oc(=O)cc(CN3CCN(C(=O)c4ccc(Br)cc4)CC3)c2c1	93.4%
CC(=O)c1c(C)nc2ccccc2c1C(=O)O	91.9%
Cc1ncc(CO)c(C)c1O	104%
O=C(CSc1nc2ccccc2c(=O)[nH]1)Nc1ccc2c(c1)OCO2	102%
COc1cc(C2C3=C(CC(C)(C)CC3=O)Nc3[nH]c(=O)[nH]c(=O)c32)cc(OC)c1OC (configuration not stated)	101%
Nc1nc(N)c2c(Cl)cccc2n1	99.3%
CCc1cccc(C)c1Nc1ncnc2ccc(Br)cc12	88.2%
COc1ccc(NC(=O)/C=C/c2ccc(OC)c(OC)c2)cc1	95.3%
Cn1c(SCC(=O)Nc2ccc(F)c(Cl)c2)nc2c(=O)[nH]cnc21	115%
CCOc1ccccc1C1C2CCCCC2(O)CCN1C(=O)c1cc(OCC)c(OCC)c(OCC)c1 (configuration not stated)	87%
COc1ccc(C(=O)NCCc2c(C)[nH]c3ccc(OCc4ccccc4)cc23)cc1OC	108%
COc1ccc(C(=O)Cn2nc(-c3ccccc3)oc2=O)cc1OC	104%
CCc1ccc(NC(=O)CSc2nc3c(=O)[nH]cnc3n2-c2ccc(C)cc2)cc1	101%
COC(=O)Cn1cnc2c1c(=O)[nH]c(=O)n2C	106%
O=C(Cn1c(=O)cc(C(=O)N2CCCCC2)c2ccccc21)Nc1cccc(Cl)c1	92.1%
Nc1ccc(-c2c3ccc(=O)cc-3oc3cc(O)ccc23)c(C(=O)O)c1	99.4%
CN(C)c1ccc(/C=N/NC(=O)Cc2n[nH]c(=O)[nH]c2=O)cc1	105%
CC(Cl)COC(=O)/C=C/c1ccc([N+](=O)[O-])cc1 (configuration not stated)	108%
O=C(Cn1c(=O)cc(C(=O)N2CCOCC2)c2ccccc21)Nc1ccc(F)c(Cl)c1	89.6%
COc1cc(C=O)ccc1OCC(N)=O	100%

Structure (SMILES)	cell viability
Cn1ncc([N+](=O)[O-])c1C(=O)NC(CO)C(O)c1ccc([N+](=O)[O-])cc1 (configuration not stated)	96.6%
O=C1NCCc2c1[nH]c1ccccc21	111%
COCCOC(=O)c1c(C)n(-c2cccc(C)c2)c2c1cc(O)c1ccccc12	108%
COc1ccc(C(=O)NCC(=O)O)cc1	105%
CC1CCN(S(=O)(=O)c2ccc(NC(=O)CN3CCc4ccccc4C3)cc2)CC1	96.8%
O=C(CN1C(=O)S/C(=C\c2cc3c(cc2[N+](=O)[O-])OCO3)C1=O)Nc1ccccc1F	102%
CCC(CC)c1nc(Nc2cccc(C(C)=O)c2)c2ccccc2n1	92.7%
COc1c(C)cnc(CSc2nc3ccccc3c(=O)[nH]2)c1C	100%
COc1ccc(C(=O)Nc2cc(C)ccc2C)cc1OC	96.7%
COc1ccc(S(=O)(=O)NCCc2c(C)[nH]c3ccc(C)cc23)c2ccccc12	70.1%
CCCOc1cccc(C2C3=C(CC(C)(C)CC3=O)Nc3ccccc3N2C(C)=O)c1 (configuration not stated)	100%
Cc1cc2c(C(C)C)c(O)c(O)c(C=NCC34CC5CC(CC(C5)C3)C4)c2c(O)c1-c1c(C)cc2c(C(C)C)c(O)c(O)c(C=NCC34CC5CC(CC(C5)C3)C4)c2c1O	104%
COc1ccc(C2CC(=O)C3=C(C2)Nc2ccccc2NC3c2ccncc2)cc1 (configuration not stated)	104%
Cc1cc(/C=N/NC(=O)c2ccc(CN3CCc4ccccc4C3)cc2)c(C)n1-c1ccccc1F	87.7%
O=C(CCNc1n[nH]c(=O)[nH]c1=O)N/N=C/c1c[nH]c2ccccc12	100%
CCOc1ccc2oc(=O)cc(CN3CCN(Cc4ccc(OC)cc4)CC3)c2c1	101%
CCOc1cc(C2Nc3ccccc3NC3=C2C(=O)CC(c2ccc(OC)c(OC)c2)C3)cc(Br)c1OC (configuration not stated)	109%
NC(=O)CC(NSc1ccccc1[N+](=O)[O-])C(=O)O (configuration not stated)	99.9%
COc1cc2c(cc1OC)C(c1cccc(I)c1)NCC2 (configuration not stated)	78.3%
COc1cc(C(=O)Nc2ccc3c(c2)CCCN3C(=O)C(C)(C)C)cc(OC)c1OC	95.1%
O=C(OCC1CCCN2CCCCC12)c1cccc(Br)c1 (configuration not stated)	102%
COc1ncnc2nc[nH]c12	100%
Cc1ccc2c(CN3CCN(CC#N)CC3)cc(=O)oc2c1	99.4%
Cc1c(CCC(=O)NCc2ccccc2)c(=O)oc2cc(O)ccc12	102%
